These are yes or no findings as the source states them, for the method shown. Binding seen in cells or lysates may run through a third protein. A yes stands for co-enrichment or nearness to the bait. Other partners may have been found. Tags and fused reporters may be left off the sequences shown.
B1: Mip18 (protein, UniProt Q9VTC4 1-156)
chain: MPTEIENINPNVYDRIKERVLTANEEDENVPDPFDKREIFDLIRNINDPEHPLTLEELHVVQEDLIRINDSQNSVHISFTPTIPHCSMATLIGLSIRVKLLRSLPPRFKVTVEITPGTHASELAVNKQLADKERVAAALENNHLAEVINQCIAAKG
B2: Ciao1 (protein, UniProt Q7K1Y4 1-335)
chain: MGRLILEHTLQGHKGRIWGVAWHPKGNVFASCGEDKAIRIWSLTGNTWSTKTILSDGHKRTIREIRWSPCGQYLASASFDATTAIWSKSSGEFECNATLEGHENEVKSVSWSRSGGLLATCSRDKSVWIWEVAGDDEFECAAVLNPHTQDVKRVVWHPTKDILASASYDNTIKMFAEEPIDNDWDCTATLTSHTSTVWGIDFDADGERLVSCSDDTTIKIWRAYHPGNTAGVATPDQQTVWKCVCTVSGQHSRAIYDVSWCKLTGLIATACGDDGIRIFKESSDSKPDEPTFEQITAEEGAHDQDVNSVQWNPVVAGQLISCSDDGTIKIWKVTE

By UniProt entry, the sequences of proteins in these tests, tags left out. Where a name states a change or a piece, a line headed by the entry shows the natural chain unless it says otherwise.
UniProt O62526: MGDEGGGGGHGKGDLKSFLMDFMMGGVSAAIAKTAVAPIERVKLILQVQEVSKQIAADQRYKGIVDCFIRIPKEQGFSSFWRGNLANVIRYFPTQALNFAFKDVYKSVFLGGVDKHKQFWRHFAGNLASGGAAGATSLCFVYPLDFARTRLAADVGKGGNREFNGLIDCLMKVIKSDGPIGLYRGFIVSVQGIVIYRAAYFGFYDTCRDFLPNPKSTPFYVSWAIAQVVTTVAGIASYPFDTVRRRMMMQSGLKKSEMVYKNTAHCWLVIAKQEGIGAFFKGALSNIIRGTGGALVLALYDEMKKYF

These molecules were tested against T1, Mms19::eGFP (Drosophila) (UniProt Q95U54) (assay: affinity purification with mass spectrometry; anti-GFP antibody (3E6) on ProteinG-Mag Sepharose beads incubated with crude whole-fly extracts 6 hrs at 4°C; 25mM Hepes, 150mM NaCl, 1mM EDTA; controls: wild-type flies and Imp::eGFP flies).
T1 sequence: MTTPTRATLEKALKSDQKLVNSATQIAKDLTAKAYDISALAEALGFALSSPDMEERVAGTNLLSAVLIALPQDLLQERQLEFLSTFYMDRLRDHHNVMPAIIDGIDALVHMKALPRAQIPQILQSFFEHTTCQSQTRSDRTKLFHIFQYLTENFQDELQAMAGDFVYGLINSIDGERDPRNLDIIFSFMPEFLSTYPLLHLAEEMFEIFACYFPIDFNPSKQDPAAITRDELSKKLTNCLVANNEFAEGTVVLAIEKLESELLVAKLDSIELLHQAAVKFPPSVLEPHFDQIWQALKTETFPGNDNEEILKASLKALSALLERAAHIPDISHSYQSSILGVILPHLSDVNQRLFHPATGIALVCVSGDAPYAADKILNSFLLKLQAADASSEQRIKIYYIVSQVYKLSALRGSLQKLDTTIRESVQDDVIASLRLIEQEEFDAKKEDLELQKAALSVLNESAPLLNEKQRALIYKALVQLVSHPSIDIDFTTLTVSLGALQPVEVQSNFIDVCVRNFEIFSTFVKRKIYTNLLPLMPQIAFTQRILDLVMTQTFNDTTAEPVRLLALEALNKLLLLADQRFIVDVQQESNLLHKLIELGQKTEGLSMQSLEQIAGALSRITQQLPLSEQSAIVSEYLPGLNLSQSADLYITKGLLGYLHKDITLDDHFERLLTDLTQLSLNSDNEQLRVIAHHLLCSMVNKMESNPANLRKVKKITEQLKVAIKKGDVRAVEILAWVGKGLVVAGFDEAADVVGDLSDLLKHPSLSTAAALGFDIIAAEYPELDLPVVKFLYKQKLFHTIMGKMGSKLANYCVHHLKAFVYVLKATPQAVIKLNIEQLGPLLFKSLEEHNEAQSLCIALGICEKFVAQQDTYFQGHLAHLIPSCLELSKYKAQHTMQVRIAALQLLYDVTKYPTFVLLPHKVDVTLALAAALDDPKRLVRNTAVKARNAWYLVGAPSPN

Molecule	binding
Ant2 (from UniProt O62526)	binds
B1	binds
B2	binds

— paper PMC7714366
